Data as given in PubChem BioAssay AID686938 (Drosophila RNAi Screening Center, 2013).
Screen: 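Fly genes required for calcium entry once internal stores are emptied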 (primary screen). Cell system: Drosophila S2R+ cells. Reagents: long dsRNA against Drosophila genes, about 0.25 µg dsRNA per well, roughly 10,000 cells. Duration: 5 days of knock-down before the calcium assay. Conditions: thapsigargin (SERCA pump blocker) to empty calcium stores; entry signal taken 4 min after adding it. Measurement: 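Per-well fluo-4 fluorescence in two replicates, unnormalised, measured in resting cells and 4 min after store depletion by the SERCA blocker thapsigargin; ratio of the two present in few wells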. Direction: calcium entry signal: higher = stronger calcium signal after store depletion; entry to resting ratio: higher = more calcium entry relative to resting level; resting calcium signal: higher = higher resting calcium signal. Call rule: 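Hit if the duplicate-averaged plate z-score for entry over resting signal is under −3; wells with weak total dye signal (Fmax z < −2) or more than 5 off-targets removed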. Calls: active = strongly reduced calcium entry; inactive = no strong reduction.
The deposit covers about 23,000 reagents; this is a random part of those that have a named target and a result. Over the whole deposit, 75 (0.33%) are marked active. 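Raw plate signals without normalisation; calls rest on plate z-scores that were not deposited; ratio present for only 364 wells.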 Names joined by + are all predicted targets of the reagent. The record does not give: the dose of the treatment.

no.	gene	dsRNA	calcium entry signal, replicate 1 (fluorescence units)	calcium entry signal, replicate 2 (fluorescence units)	entry to resting ratio	resting calcium signal, replicate 1 (fluorescence units)	resting calcium signal, replicate 2 (fluorescence units)	activity call
1	CG12320	DRSC14498	3.34e7	3.73e7		4.19e7	1.57e7	inactive
2	CG4789	DRSC19918	3.27e7	2.88e7		1.78e7	1.45e7	inactive
3	Usp7 (Ubiquitin-specific protease 7)	DRSC18909	2.49e7	4.03e7		1.15e7	1.55e7	inactive
4	Usp7 (Ubiquitin-specific protease 7)	DRSC19604	4.57e7	6.75e7		2.16e7	3.07e7	inactive
5	sni (sniffer)	DRSC17770	2.14e7	2.56e7		1.16e7	1.26e7	inactive
6	PCID2 (PCI domain-containing protein 2)	DRSC10822	2.66e7	2.65e7		2.13e7	1.18e7	inactive
7	Fum2 (Fumarase 2)	DRSC18345	2.30e7	3.29e7		1.32e7	1.74e7	inactive
8	CG9917	DRSC20218	3.78e7	4.41e7		1.79e7	2.12e7	inactive
9	CG7408	DRSC10841	3.77e7	4.65e7		1.80e7	1.81e7	inactive
10	ci (cubitus interruptus)	DRSC17172	5.47e7	5.77e7	2.2	2.45e7	2.25e7	inactive
11	rb (ruby)	DRSC18826	4.39e7	4.51e7		2.07e7	2.08e7	inactive
12	Snrk (SNF related kinase)	DRSC07192	3.40e7	4.54e7		1.47e7	2.18e7	inactive
13	Snrk (SNF related kinase)	DRSC23332	3.89e7	3.53e7		2.16e7	1.65e7	inactive
14	wbl (windbeutel)	DRSC07718	3.54e7	2.92e7		1.53e7	1.42e7	inactive
15	Rab30	DRSC03137	3.45e7	3.87e7		1.64e7	1.74e7	inactive
16	CG6142	DRSC15976	3.07e7	4.70e7		1.84e7	1.93e7	inactive
17	Nek2	DRSC18124	4.55e7	3.00e7		2.04e7	1.55e7	inactive
18	CG32259	DRSC08082	4.19e7	4.33e7		2.17e7	2.10e7	inactive
19	yki (yorkie)	DRSC04437	3.44e7			1.76e7		inactive
20	Coq6 (Coenzyme Q6)	DRSC03040	4.24e7			2.85e7		inactive
21	CG4278	DRSC02741	4.48e7			2.38e7		inactive
22	CG4884	DRSC15671	3.63e7	4.13e7		1.79e7	1.64e7	inactive
23	CG14740	DRSC14960	3.01e7	4.21e7		1.42e7	1.85e7	inactive
24	alpha-Est1 (alpha-Esterase-1)	DRSC12612	2.41e7	2.48e7		1.09e7	1.20e7	inactive
25	MsR1 (Myosuppressin receptor 1)	DRSC08615	3.76e7	3.87e7		1.80e7	1.61e7	inactive
26	nsr (novel spermatogenesis regulator)	DRSC04427	3.56e7			1.86e7		inactive
27	nsr (novel spermatogenesis regulator)	DRSC22806	3.22e7	3.63e7		1.73e7	1.86e7	inactive

10 entries from above in another layout:
CG32259 [DRSC08082]: calcium entry signal, replicate 1 (fluorescence units) = 4.19e7; calcium entry signal, replicate 2 (fluorescence units) = 4.33e7; resting calcium signal, replicate 1 (fluorescence units) = 2.17e7; resting calcium signal, replicate 2 (fluorescence units) = 2.10e7; activity call = inactive
yki (yorkie) [DRSC04437]: calcium entry signal, replicate 1 (fluorescence units) = 3.44e7; resting calcium signal, replicate 1 (fluorescence units) = 1.76e7; activity call = inactive
Coq6 (Coenzyme Q6) [DRSC03040]: calcium entry signal, replicate 1 (fluorescence units) = 4.24e7; resting calcium signal, replicate 1 (fluorescence units) = 2.85e7; activity call = inactive
CG4278 [DRSC02741]: calcium entry signal, replicate 1 (fluorescence units) = 4.48e7; resting calcium signal, replicate 1 (fluorescence units) = 2.38e7; activity call = inactive
CG4884 [DRSC15671]: calcium entry signal, replicate 1 (fluorescence units) = 3.63e7; calcium entry signal, replicate 2 (fluorescence units) = 4.13e7; resting calcium signal, replicate 1 (fluorescence units) = 1.79e7; resting calcium signal, replicate 2 (fluorescence units) = 1.64e7; activity call = inactive
CG14740 [DRSC14960]: calcium entry signal, replicate 1 (fluorescence units) = 3.01e7; calcium entry signal, replicate 2 (fluorescence units) = 4.21e7; resting calcium signal, replicate 1 (fluorescence units) = 1.42e7; resting calcium signal, replicate 2 (fluorescence units) = 1.85e7; activity call = inactive
alpha-Est1 (alpha-Esterase-1) [DRSC12612]: calcium entry signal, replicate 1 (fluorescence units) = 2.41e7; calcium entry signal, replicate 2 (fluorescence units) = 2.48e7; resting calcium signal, replicate 1 (fluorescence units) = 1.09e7; resting calcium signal, replicate 2 (fluorescence units) = 1.20e7; activity call = inactive
MsR1 (Myosuppressin receptor 1) [DRSC08615]: calcium entry signal, replicate 1 (fluorescence units) = 3.76e7; calcium entry signal, replicate 2 (fluorescence units) = 3.87e7; resting calcium signal, replicate 1 (fluorescence units) = 1.80e7; resting calcium signal, replicate 2 (fluorescence units) = 1.61e7; activity call = inactive
nsr (novel spermatogenesis regulator) [DRSC04427]: calcium entry signal, replicate 1 (fluorescence units) = 3.56e7; resting calcium signal, replicate 1 (fluorescence units) = 1.86e7; activity call = inactive
nsr (novel spermatogenesis regulator) [DRSC22806]: calcium entry signal, replicate 1 (fluorescence units) = 3.22e7; calcium entry signal, replicate 2 (fluorescence units) = 3.63e7; resting calcium signal, replicate 1 (fluorescence units) = 1.73e7; resting calcium signal, replicate 2 (fluorescence units) = 1.86e7; activity call = inactive

Continued:
no.	gene	dsRNA	calcium entry signal, replicate 1 (fluorescence units)	calcium entry signal, replicate 2 (fluorescence units)	entry to resting ratio	resting calcium signal, replicate 1 (fluorescence units)	resting calcium signal, replicate 2 (fluorescence units)	activity call
28	Tfb1 (Transcription factor B1)	DRSC07082	2.59e7	4.34e7		1.26e7	1.93e7	inactive
29	TBC1D16 (TBC1 domain family member 16)	DRSC02841	2.79e7	4.33e7		1.40e7	1.80e7	inactive
30	CG6280	DRSC06972	3.95e7	3.92e7		1.96e7	1.82e7	inactive
31	CG9109	DRSC03139	4.81e7			2.17e7		inactive
32	ZnT33D (Zinc transporter 33D)	DRSC02591	3.64e7	2.61e7		1.75e7	1.33e7	inactive
33	l(2)05714 (lethal (2) 05714)	DRSC03118	3.62e7			1.79e7		inactive
34	Tmem43 (Transmembrane protein 43)	DRSC10964	3.95e7	5.73e7		1.77e7	2.34e7	inactive
35	Or23a (Odorant receptor 23a)	DRSC00767	3.53e7	3.55e7		1.70e7	1.65e7	inactive
36	CG33258	DRSC09415	3.71e7	4.69e7		1.66e7	2.44e7	inactive
37	hep (hemipterous)	DRSC19839	3.35e7	4.49e7		1.69e7	2.29e7	inactive
38	hep (hemipterous)	DRSC20337	3.79e7	3.90e7		1.94e7	2.08e7	inactive
39	CG7656	DRSC10900	4.04e7	4.80e7		1.84e7	3.04e7	inactive
40	Obp83a (Odorant-binding protein 83a)	DRSC12362	4.09e7	2.83e7		1.86e7	1.40e7	inactive
41	etaTry (etaTrypsin)	DRSC07613	3.00e7	4.46e7		1.56e7	1.76e7	inactive
42	unpg (unplugged)	DRSC07713	3.83e7	4.32e7		1.75e7	1.74e7	inactive
43	djl (don juan like)	DRSC12578	4.33e7	4.15e7		2.31e7	1.87e7	inactive
44	CG4629	DRSC00659	4.20e7	4.43e7		1.86e7	1.91e7	inactive
45	Or71a (Odorant receptor 71a)	DRSC11244	2.81e7	4.36e7		1.45e7	1.52e7	inactive
46	CG4582	DRSC15605	3.92e7	4.36e7		1.82e7	1.83e7	inactive
47	CR42546 (pseudo)	DRSC03711	3.10e7	4.24e7		1.62e7	1.85e7	inactive
48	gb (genderblind)	DRSC15961	4.44e7	4.99e7		1.98e7	2.32e7	inactive
49	CG3927	DRSC04433	3.43e7	3.48e7		1.82e7	1.48e7	inactive
50	CG3927	DRSC22813	3.27e7	3.73e7		1.62e7	2.07e7	inactive
51	MED22 (Mediator complex subunit 22)	DRSC18175	2.37e7	3.03e7	1.9	1.28e7	1.36e7	inactive
52	p53	DRSC17024	5.35e7	4.19e7		2.41e7	1.95e7	inactive
53	CG32576	DRSC19136	2.98e7	3.79e7		1.57e7	1.93e7	inactive
54	CG6277	DRSC16008	3.44e7	4.98e7		1.72e7	2.17e7	inactive
55	CG13427	DRSC06389	4.27e7	3.88e7		1.94e7	1.92e7	inactive
56	Alp10 (Alkaline phosphatase 10)	DRSC09749	3.10e7	4.84e7		1.44e7	1.98e7	inactive
57	Mcm2 (Minichromosome maintenance 2)	DRSC16734	4.37e7	5.86e7		2.18e7	2.48e7	inactive
58	fj (four-jointed)	DRSC07619	4.88e7	4.47e7		2.11e7	2.05e7	inactive
59	CG8736	DRSC07255	4.38e7	3.60e7		2.03e7	1.55e7	inactive
60	Cp19 (Chorion protein 19)	DRSC11121	3.17e7	4.41e7		1.53e7	2.13e7	inactive
61	CG14062	DRSC14725	4.46e7	5.64e7		2.26e7	2.44e7	inactive
62	C901	DRSC19351	3.89e7	5.74e7		1.83e7	2.68e7	inactive
63	Cyp12d1-d + Cyp12d1-p	DRSC21507	2.48e7	3.24e7		1.41e7	1.64e7	inactive
64	tra (transformer)	DRSC11405	3.95e7	5.21e7		1.91e7	2.06e7	inactive
65	CG7202	DRSC11818	2.65e7	3.23e7		1.28e7	1.52e7	inactive
66	CG4502	DRSC02755	3.80e7			1.96e7		inactive
67	CG4502	DRSC23237	3.54e7	3.54e7		1.91e7	1.58e7	inactive
68	CG34408	DRSC17733	4.03e7	4.18e7		1.98e7	2.02e7	inactive
69	CG34408	DRSC21926	3.89e7	6.83e7		1.91e7	3.56e7	inactive
70	CG34408	DRSC23056	3.55e7	3.19e7		2.06e7	1.56e7	inactive
71	CG32241	DRSC08100	4.99e7	3.16e7		2.81e7	1.56e7	inactive
72	CG32241	DRSC21518	4.36e7	3.90e7		2.33e7	1.81e7	inactive
73	CG32706 + CG6999	DRSC18412	2.26e7	4.10e7		1.17e7	1.80e7	inactive
74	CG13036 (retired record)	DRSC09916	5.15e7	7.97e7		2.38e7	2.78e7	inactive
75	P58IPK	DRSC16404	2.73e7	3.33e7		1.48e7	1.69e7	inactive
